“And” between values parts separate entries of the source, which are not always exact repeats. Equal entries are not always repeated. Further values from the same series stand in other lists.
Target: T1, WGR domain of PARP2 (Homo sapiens, UniProt Q9UGN5)
T1 construct: WGR domain of PARP2 (residues 77–220) into pET-15b-TEV expression vector; 6xHis (pET-15b-TEV) (N, cleaved yes); made in house; host or cells: Escherichia coli Rosetta2 (DE3) pLysS
Test: Tryptophan fluorescence spectroscopy of the WGR domain titrated with divalent cations (one site binding fit)
Details: listed as Zn
Method: Fluorescence spectra of Trp residues were measured in the 300–450 nm spectral range at the 270 nm excitation wavelengths using the Cary Eclipse spectrofluorometer (Varian/Agilent, USA).
Fluorescence of WGR domain was measured at 0.5 or 5 µM in a buffer containing 10 mM HEPES (pH 8.0), 150 mM NaCl and 0.73 or 7.3 µM EDTA, respectively. Solutions were complemented with ZnCl2 (0.2–308 µM) or MgCl2 (15–5000 µM), or CaCl2 (8–5000 µM) dissolved in a buffer containing 10 mM HEPES (pH 8.0), 150 mM NaCl. Intensity of the measured spectra was corrected for the concomitant dilution of the WGR domain. Integral intensities (Ifl.) of fluorescence spectra were averaged over three independent measurements (mean ± SEM) and used to plot the corresponding Ifl. vs. ion concentration graphs. Data were fitted with the one site binding equation:2 [drawing 2]
Where C is the concentration of divalent cations, Kd is a dissociation constant of the complex, Im and Ifl0 are maximal and initial values of Ifl., respectively.

Amino acid sequences for entries named in this document (tags omitted). Residues count along the entry.
UniProt Q9UGN5, 77-220: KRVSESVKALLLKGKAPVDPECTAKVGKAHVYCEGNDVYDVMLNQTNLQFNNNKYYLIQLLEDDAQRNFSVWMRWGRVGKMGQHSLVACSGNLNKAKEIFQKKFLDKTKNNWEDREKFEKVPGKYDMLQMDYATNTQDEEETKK

fluorescence intensity (Fig 3d) (wavelength 334.000, 5.9 uM Zn): 94.488 and 73.764
fluorescence intensity (Fig 3d) (wavelength 334.000, 11.6 uM Zn): 109.935 and 117.803
fluorescence intensity (Fig 3d) (wavelength 334.000, 303 uM + 7 mM EDTA): 43.844 and 55.461 and 44.966 and 53.995
fluorescence intensity (Fig 3d) (wavelength 335.070, 5.9 uM Zn): 69.080 and 76.945 and 96.741 and 75.080
fluorescence intensity (Fig 3d) (wavelength 335.070, 303 uM + 7 mM EDTA): 46.022 and 57.093 and 45.868 and 55.571
fluorescence intensity (Fig 3d) (wavelength 336.000, 5.9 uM Zn): 70.553 and 79.727 and 96.509 and 76.253
fluorescence intensity (Fig 3d) (wavelength 336.000, 303 uM + 7 mM EDTA): 45.349 and 57.999 and 45.954 and 55.775
fluorescence intensity (Fig 3d) (wavelength 337.070, 5.9 uM Zn): 70.332 and 80.463 and 97.306 and 76.822
fluorescence intensity (Fig 3d) (wavelength 337.070, 303 uM + 7 mM EDTA): 46.338 and 58.051 and 46.464 and 55.465
fluorescence intensity (Fig 3d) (wavelength 338.000, 5.9 uM Zn): 70.215 and 81.093 and 98.543 and 77.316
fluorescence intensity (Fig 3d) (wavelength 338.000, 303 uM + 7 mM EDTA): 46.240 and 59.124 and 46.350 and 56.772
fluorescence intensity (Fig 3d) (wavelength 339.070, 5.9 uM Zn): 71.542 and 81.696 and 99.306 and 78.682
fluorescence intensity (Fig 3d) (wavelength 339.070, 303 uM + 7 mM EDTA): 47.012 and 58.655 and 46.670 and 56.771
fluorescence intensity (Fig 3d) (wavelength 340.000, 5.9 uM Zn): 71.672 and 81.923 and 100.308 and 79.259
fluorescence intensity (Fig 3d) (wavelength 340.000, 303 uM + 7 mM EDTA): 46.086 and 59.753 and 46.692 and 55.673
fluorescence intensity (Fig 3d) (wavelength 340.930, 5.9 uM Zn): 71.827 and 81.617 and 100.536 and 78.967
fluorescence intensity (Fig 3d) (wavelength 340.930, 303 uM + 7 mM EDTA): 47.101 and 59.078 and 46.654 and 57.361
fluorescence intensity (Fig 3d) (wavelength 342.030, 5.9 uM Zn): 72.290 and 81.405 and 101.269 and 78.832
fluorescence intensity (Fig 3d) (wavelength 342.030, 303 uM + 7 mM EDTA): 46.733 and 59.088 and 47.233 and 57.354
fluorescence intensity (Fig 3d) (wavelength 342.960, 5.9 uM Zn): 72.722 and 83.358 and 100.342 and 79.244
fluorescence intensity (Fig 3d) (wavelength 342.960, 303 uM + 7 mM EDTA): 46.538 and 60.348 and 46.909 and 57.500
Structure (SMILES): [Cl-].[Cl-].[Zn+2] [Zn2+, ZnCl2]
fluorescence intensity (Fig 3d) (wavelength 334.000, 17.2 uM): 134.079 and 123.008 and 122.422 and 122.634
fluorescence intensity (Fig 3d) (wavelength 334.000, 22.1 uM): 135.200 and 123.612 and 122.696 and 125.126
fluorescence intensity (Fig 3d) (wavelength 334.000, 308 uM): 134.538 and 127.976 and 128.402 and 125.627
fluorescence intensity (Fig 3d) (wavelength 335.070, 11.6 uM Zn): 129.118 and 113.063 and 111.602 and 121.027
fluorescence intensity (Fig 3d) (wavelength 335.070, 17.2 uM): 136.142 and 124.910 and 124.725 and 124.997
fluorescence intensity (Fig 3d) (wavelength 335.070, 22.1 uM): 136.511 and 125.568 and 125.541 and 127.902
fluorescence intensity (Fig 3d) (wavelength 335.070, 308 uM): 137.704 and 129.863 and 131.367 and 126.743
fluorescence intensity (Fig 3d) (wavelength 336.000, 11.6 uM Zn): 131.661 and 113.885 and 111.911 and 121.119
fluorescence intensity (Fig 3d) (wavelength 336.000, 17.2 uM): 136.561 and 125.518 and 124.266 and 126.632
fluorescence intensity (Fig 3d) (wavelength 336.000, 22.1 uM): 140.338 and 126.796 and 126.438 and 127.620
fluorescence intensity (Fig 3d) (wavelength 336.000, 308 uM): 138.633 and 131.173 and 132.078 and 128.494
fluorescence intensity (Fig 3d) (wavelength 337.070, 11.6 uM Zn): 132.064 and 114.038 and 114.177 and 121.740
fluorescence intensity (Fig 3d) (wavelength 337.070, 17.2 uM): 137.466 and 128.298 and 126.711 and 127.378
fluorescence intensity (Fig 3d) (wavelength 337.070, 22.1 uM): 140.783 and 129.260 and 126.618 and 130.381
fluorescence intensity (Fig 3d) (wavelength 337.070, 308 uM): 140.043 and 132.716 and 132.877 and 130.646
fluorescence intensity (Fig 3d) (wavelength 338.000, 11.6 uM Zn): 133.027 and 114.574 and 115.179 and 121.328
fluorescence intensity (Fig 3d) (wavelength 338.000, 17.2 uM): 139.057 and 129.492 and 127.870 and 128.253
fluorescence intensity (Fig 3d) (wavelength 338.000, 22.1 uM): 140.716 and 130.013 and 129.129 and 129.993
fluorescence intensity (Fig 3d) (wavelength 338.000, 308 uM): 141.862 and 133.810 and 134.608 and 132.122
fluorescence intensity (Fig 3d) (wavelength 339.070, 11.6 uM Zn): 134.648 and 118.309 and 115.508 and 124.091
fluorescence intensity (Fig 3d) (wavelength 339.070, 17.2 uM): 142.597 and 131.085 and 130.459 and 129.417
fluorescence intensity (Fig 3d) (wavelength 339.070, 22.1 uM): 143.025 and 129.585 and 130.088 and 130.347
fluorescence intensity (Fig 3d) (wavelength 339.070, 308 uM): 142.704 and 134.158 and 134.193 and 132.767
fluorescence intensity (Fig 3d) (wavelength 340.000, 11.6 uM Zn): 136.816 and 118.636 and 117.007 and 124.343
fluorescence intensity (Fig 3d) (wavelength 340.000, 17.2 uM): 142.351 and 129.822 and 131.297 and 132.482
fluorescence intensity (Fig 3d) (wavelength 340.000, 22.1 uM): 143.333 and 131.532 and 132.262 and 133.263
fluorescence intensity (Fig 3d) (wavelength 340.000, 308 uM): 145.226 and 135.383 and 137.028 and 132.022
fluorescence intensity (Fig 3d) (wavelength 340.930, 11.6 uM Zn): 135.528 and 118.618 and 117.590 and 125.195
fluorescence intensity (Fig 3d) (wavelength 340.930, 17.2 uM): 142.672 and 131.886 and 132.190 and 130.893
fluorescence intensity (Fig 3d) (wavelength 340.930, 22.1 uM): 144.364 and 131.545 and 131.644 and 132.564
fluorescence intensity (Fig 3d) (wavelength 340.930, 308 uM): 143.608 and 134.999 and 137.628 and 134.520
fluorescence intensity (Fig 3d) (wavelength 342.030, 11.6 uM Zn): 137.188 and 118.837 and 118.873 and 125.912
fluorescence intensity (Fig 3d) (wavelength 342.030, 17.2 uM): 143.520 and 132.109 and 132.502 and 130.655
fluorescence intensity (Fig 3d) (wavelength 342.030, 22.1 uM): 144.909 and 131.592 and 130.570 and 133.637
fluorescence intensity (Fig 3d) (wavelength 342.030, 308 uM): 143.859 and 136.976 and 137.205 and 134.454
fluorescence intensity (Fig 3d) (wavelength 342.960, 11.6 uM Zn): 137.558 and 119.232 and 118.395 and 124.642
fluorescence intensity (Fig 3d) (wavelength 342.960, 17.2 uM): 142.641 and 132.405 and 133.280 and 132.456
fluorescence intensity (Fig 3d) (wavelength 342.960, 22.1 uM): 144.070 and 131.977 and 133.694 and 132.885
fluorescence intensity (Fig 3d) (wavelength 342.960, 308 uM): 144.227 and 135.260 and 137.031 and 133.787

From paper PMC12209172, “Poly(ADP-ribose)polymerase 2 is zinc-dependent enzyme and nucleosome reorganizer” (Cellular and Molecular Life Sciences: CMLS, 2025)
